Reference: publication PMC11127904
No constants are given. Whether binding was seen depends on the method and setting. In cells and extracts the contact can be indirect. Some entries that bind do so weakly or less than the wild type. For some assays here: Sequences can lack the tags named with a protein.

The chains behind the UniProt entries cited, without tags or fusion partners.
UniProt Q12778: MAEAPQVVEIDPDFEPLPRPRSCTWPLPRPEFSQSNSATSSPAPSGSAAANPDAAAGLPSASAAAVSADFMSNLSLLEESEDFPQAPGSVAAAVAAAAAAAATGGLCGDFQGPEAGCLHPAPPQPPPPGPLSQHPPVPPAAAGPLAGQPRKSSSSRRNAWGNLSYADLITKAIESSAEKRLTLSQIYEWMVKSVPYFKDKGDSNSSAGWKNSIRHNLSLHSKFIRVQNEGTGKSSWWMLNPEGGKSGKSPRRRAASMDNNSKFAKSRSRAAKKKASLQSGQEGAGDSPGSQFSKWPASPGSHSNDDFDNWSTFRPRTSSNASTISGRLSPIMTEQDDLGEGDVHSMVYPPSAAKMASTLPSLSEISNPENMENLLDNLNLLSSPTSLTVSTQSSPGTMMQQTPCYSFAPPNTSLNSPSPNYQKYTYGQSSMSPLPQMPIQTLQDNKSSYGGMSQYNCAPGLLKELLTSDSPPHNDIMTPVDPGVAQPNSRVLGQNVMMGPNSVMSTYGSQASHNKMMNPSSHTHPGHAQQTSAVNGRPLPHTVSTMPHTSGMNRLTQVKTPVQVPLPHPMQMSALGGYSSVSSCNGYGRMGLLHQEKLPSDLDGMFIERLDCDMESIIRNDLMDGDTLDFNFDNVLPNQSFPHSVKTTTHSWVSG

B1: Flag-tagged NEK2 (Never in Mitosis (NIMA) Related Kinase 2) (enzyme, UniProt P51955 1-445)
chain: MPSRAEDYEVLYTIGTGSYGRCQKIRRKSDGKILVWKELDYGSMTEAEKQMLVSEVNLLRELKHPNIVRYYDRIIDRTNTTLYIVMEYCEGGDLASVITKGTKERQYLDEEFVLRVMTQLTLALKECHRRSDGGHTVLHRDLKPANVFLDGKQNVKLGDFGLARILNHDTSFAKTFVGTPYYMSPEQMNRMSYNEKSDIWSLGCLLYELCALMPPFTAFSQKELAGKIREGKFRRIPYRYSDELNEIITRMLNLKDYHRPSVEEILENPLIADLVADEQRRNLERRGRQLGEPEKSQDSSPVLSELKLKEIQLQERERALKAREERLEQKEQELCVRERLAEDKLARAENLLKNYSLLKERKFLSLASNPELLNLPSSVIKKKVHFSGESKENIMRSENSESQLTSKSKCKDLKKRLHAAQLRAQALSDIEKNYQLKSRQILGMR
B2: endogenous NEK2 (enzyme, UniProt P51955 1-445)
chain: B1 chain

What was measured:
[1] = target: HA-tagged FOXO1 (Forkhead box O1) (human) (UniProt Q12778); assay: co-IP; Flag-tagged NEK2 and HA-tagged FOXO1 co-transfected into HEK293T cells; lysate incubated with antibodies and protein A/G beads at 4 °C overnight, beads washed five times, Western blot; normal mouse or rabbit IgG as negative control
[2] = target: endogenous FOXO1 (human (endogenous in EESC)) (UniProt Q12778); assay: co-IP; endogenous proteins in EESC cell lysate; lysate incubated with antibodies and protein A/G beads at 4 °C overnight, beads washed five times, Western blot; normal mouse or rabbit IgG as negative control

Binder	binding [1]	binding [2]
B1	binds	–
B2	–	binds
